The source of these data is publication PMC6739877.

Amino acid sequences for entries named in this document (tags omitted).
UniProt A0A3L7ISI1: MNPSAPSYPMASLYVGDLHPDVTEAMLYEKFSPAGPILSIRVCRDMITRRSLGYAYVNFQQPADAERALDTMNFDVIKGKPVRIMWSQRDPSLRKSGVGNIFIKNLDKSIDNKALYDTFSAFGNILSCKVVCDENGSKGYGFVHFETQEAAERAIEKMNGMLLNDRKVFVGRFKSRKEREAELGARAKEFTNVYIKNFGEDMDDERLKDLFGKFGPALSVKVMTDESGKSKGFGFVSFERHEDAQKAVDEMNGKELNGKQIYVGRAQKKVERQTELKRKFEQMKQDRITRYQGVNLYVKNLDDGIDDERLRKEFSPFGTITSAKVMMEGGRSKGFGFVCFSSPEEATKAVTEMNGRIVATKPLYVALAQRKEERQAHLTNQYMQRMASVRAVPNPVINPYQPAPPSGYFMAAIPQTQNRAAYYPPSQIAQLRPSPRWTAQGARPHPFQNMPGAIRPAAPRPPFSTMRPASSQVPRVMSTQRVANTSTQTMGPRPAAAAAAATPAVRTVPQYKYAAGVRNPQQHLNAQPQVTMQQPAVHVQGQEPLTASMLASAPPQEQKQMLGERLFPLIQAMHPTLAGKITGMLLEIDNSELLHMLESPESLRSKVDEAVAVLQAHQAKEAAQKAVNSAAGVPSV

No constants are given. Whether binding was seen depends on the method and setting. In cells and extracts the contact can be indirect. Some entries that bind do so weakly or less than the wild type.

This assay addresses eIF4E cap-binding protein (hamster (endogenous in BHK)). The assay can be described thus: pull-down; m7-GTP sepharose incubated overnight at 4°C with RNase-treated cytoplasmic lysates of BHK or BHK-NV replicon cells; bound proteins analysed by western blot. On the technique in general: A replicon is a self-replicating genome or part of one, used to study replication in cells.

With “poly-A binding protein (PABP) (from UniProt A0A3L7ISI1 1-636)”, the binding entry is recorded as “binds”.
